Test results as given in the supplement of paper PMC10849652.
The other results are listed elsewhere or left out. Residues, ends and D or L forms follow the SMILES beside them. *: point of attachment. Cbz = O=C(OCc1ccccc1)*

By UniProt entry, the sequences of proteins in these tests, tags left out. Where a name states a change or a piece, a line headed by the entry shows the natural chain unless it says otherwise.
UniProt Q8WXA9: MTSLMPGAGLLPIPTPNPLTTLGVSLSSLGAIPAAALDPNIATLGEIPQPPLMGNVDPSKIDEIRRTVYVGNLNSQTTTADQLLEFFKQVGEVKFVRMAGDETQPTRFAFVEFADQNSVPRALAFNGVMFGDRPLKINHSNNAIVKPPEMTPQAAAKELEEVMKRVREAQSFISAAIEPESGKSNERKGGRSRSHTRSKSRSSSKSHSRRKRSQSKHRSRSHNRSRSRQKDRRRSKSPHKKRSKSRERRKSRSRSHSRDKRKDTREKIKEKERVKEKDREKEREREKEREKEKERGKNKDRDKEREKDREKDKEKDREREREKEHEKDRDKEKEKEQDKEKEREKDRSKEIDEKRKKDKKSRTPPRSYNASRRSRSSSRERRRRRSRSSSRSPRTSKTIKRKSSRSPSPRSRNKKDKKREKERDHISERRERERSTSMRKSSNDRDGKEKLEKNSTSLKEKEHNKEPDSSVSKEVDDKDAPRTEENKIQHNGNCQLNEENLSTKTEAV
UniProt Q9H254, whole entry, looked up: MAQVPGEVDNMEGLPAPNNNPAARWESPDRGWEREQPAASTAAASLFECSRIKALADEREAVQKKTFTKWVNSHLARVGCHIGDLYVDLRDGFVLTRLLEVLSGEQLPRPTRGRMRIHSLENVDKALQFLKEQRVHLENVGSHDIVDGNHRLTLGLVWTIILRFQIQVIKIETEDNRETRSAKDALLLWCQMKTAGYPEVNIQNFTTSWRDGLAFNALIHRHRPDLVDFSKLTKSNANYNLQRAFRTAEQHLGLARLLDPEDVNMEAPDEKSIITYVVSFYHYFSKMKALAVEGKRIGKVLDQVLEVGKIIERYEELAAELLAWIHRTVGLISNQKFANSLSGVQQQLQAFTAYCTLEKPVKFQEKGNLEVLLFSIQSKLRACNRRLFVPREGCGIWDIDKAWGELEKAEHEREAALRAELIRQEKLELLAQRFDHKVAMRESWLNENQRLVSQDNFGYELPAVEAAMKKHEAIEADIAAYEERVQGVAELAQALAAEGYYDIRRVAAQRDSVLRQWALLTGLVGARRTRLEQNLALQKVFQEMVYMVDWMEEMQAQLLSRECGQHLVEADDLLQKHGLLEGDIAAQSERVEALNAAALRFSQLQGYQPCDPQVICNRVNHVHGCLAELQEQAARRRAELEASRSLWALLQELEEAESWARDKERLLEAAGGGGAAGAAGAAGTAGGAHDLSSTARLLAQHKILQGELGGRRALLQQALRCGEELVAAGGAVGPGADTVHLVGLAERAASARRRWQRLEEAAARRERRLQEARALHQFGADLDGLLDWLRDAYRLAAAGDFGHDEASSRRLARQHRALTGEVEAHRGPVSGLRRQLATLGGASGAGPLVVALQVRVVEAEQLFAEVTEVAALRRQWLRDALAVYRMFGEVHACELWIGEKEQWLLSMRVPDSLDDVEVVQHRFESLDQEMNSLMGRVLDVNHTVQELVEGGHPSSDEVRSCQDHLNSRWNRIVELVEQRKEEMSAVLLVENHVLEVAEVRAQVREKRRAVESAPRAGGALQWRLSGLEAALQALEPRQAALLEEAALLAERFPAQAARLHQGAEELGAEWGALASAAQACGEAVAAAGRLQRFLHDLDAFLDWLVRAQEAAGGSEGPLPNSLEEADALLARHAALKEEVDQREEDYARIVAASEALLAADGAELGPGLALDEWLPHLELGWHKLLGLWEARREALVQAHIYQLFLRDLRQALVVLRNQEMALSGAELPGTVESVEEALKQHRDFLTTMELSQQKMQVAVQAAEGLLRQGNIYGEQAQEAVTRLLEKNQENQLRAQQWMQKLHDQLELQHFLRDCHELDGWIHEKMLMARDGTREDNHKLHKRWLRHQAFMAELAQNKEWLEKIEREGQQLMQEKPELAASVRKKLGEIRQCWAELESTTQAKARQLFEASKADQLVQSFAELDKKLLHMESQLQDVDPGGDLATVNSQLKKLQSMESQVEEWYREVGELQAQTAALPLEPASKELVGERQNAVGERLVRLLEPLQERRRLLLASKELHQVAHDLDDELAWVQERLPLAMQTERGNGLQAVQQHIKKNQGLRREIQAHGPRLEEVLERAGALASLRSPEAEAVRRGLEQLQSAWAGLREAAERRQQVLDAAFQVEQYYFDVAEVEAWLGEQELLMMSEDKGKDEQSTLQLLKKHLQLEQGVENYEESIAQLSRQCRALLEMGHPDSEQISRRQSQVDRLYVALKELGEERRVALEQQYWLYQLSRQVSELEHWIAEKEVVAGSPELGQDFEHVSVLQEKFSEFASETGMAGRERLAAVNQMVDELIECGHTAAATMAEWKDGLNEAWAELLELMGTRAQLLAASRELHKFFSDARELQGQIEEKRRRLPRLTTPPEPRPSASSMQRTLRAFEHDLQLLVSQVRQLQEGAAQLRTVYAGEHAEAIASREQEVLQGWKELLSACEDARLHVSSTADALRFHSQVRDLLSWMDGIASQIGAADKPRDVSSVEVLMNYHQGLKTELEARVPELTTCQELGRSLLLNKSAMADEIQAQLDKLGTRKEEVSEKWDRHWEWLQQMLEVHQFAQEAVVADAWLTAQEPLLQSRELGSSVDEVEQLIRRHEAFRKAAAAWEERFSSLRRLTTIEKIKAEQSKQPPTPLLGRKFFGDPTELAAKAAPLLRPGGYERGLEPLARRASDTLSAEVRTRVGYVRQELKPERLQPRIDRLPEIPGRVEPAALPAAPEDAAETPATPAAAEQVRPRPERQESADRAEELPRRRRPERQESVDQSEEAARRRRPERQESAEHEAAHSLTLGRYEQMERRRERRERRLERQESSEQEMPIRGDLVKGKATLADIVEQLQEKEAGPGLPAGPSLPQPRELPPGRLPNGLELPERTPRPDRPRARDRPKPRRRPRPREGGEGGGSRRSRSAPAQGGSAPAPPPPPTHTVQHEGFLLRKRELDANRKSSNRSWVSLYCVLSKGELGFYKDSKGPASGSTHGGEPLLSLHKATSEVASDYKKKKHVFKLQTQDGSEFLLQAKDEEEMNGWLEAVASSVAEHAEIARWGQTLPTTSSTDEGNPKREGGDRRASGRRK
UniProt O95772: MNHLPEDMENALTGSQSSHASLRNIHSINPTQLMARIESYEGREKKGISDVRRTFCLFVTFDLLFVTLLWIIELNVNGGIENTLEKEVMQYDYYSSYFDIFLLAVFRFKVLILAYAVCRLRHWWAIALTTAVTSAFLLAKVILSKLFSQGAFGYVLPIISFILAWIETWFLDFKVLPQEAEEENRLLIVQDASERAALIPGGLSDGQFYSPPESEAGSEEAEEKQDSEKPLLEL
UniProt Q96JI7: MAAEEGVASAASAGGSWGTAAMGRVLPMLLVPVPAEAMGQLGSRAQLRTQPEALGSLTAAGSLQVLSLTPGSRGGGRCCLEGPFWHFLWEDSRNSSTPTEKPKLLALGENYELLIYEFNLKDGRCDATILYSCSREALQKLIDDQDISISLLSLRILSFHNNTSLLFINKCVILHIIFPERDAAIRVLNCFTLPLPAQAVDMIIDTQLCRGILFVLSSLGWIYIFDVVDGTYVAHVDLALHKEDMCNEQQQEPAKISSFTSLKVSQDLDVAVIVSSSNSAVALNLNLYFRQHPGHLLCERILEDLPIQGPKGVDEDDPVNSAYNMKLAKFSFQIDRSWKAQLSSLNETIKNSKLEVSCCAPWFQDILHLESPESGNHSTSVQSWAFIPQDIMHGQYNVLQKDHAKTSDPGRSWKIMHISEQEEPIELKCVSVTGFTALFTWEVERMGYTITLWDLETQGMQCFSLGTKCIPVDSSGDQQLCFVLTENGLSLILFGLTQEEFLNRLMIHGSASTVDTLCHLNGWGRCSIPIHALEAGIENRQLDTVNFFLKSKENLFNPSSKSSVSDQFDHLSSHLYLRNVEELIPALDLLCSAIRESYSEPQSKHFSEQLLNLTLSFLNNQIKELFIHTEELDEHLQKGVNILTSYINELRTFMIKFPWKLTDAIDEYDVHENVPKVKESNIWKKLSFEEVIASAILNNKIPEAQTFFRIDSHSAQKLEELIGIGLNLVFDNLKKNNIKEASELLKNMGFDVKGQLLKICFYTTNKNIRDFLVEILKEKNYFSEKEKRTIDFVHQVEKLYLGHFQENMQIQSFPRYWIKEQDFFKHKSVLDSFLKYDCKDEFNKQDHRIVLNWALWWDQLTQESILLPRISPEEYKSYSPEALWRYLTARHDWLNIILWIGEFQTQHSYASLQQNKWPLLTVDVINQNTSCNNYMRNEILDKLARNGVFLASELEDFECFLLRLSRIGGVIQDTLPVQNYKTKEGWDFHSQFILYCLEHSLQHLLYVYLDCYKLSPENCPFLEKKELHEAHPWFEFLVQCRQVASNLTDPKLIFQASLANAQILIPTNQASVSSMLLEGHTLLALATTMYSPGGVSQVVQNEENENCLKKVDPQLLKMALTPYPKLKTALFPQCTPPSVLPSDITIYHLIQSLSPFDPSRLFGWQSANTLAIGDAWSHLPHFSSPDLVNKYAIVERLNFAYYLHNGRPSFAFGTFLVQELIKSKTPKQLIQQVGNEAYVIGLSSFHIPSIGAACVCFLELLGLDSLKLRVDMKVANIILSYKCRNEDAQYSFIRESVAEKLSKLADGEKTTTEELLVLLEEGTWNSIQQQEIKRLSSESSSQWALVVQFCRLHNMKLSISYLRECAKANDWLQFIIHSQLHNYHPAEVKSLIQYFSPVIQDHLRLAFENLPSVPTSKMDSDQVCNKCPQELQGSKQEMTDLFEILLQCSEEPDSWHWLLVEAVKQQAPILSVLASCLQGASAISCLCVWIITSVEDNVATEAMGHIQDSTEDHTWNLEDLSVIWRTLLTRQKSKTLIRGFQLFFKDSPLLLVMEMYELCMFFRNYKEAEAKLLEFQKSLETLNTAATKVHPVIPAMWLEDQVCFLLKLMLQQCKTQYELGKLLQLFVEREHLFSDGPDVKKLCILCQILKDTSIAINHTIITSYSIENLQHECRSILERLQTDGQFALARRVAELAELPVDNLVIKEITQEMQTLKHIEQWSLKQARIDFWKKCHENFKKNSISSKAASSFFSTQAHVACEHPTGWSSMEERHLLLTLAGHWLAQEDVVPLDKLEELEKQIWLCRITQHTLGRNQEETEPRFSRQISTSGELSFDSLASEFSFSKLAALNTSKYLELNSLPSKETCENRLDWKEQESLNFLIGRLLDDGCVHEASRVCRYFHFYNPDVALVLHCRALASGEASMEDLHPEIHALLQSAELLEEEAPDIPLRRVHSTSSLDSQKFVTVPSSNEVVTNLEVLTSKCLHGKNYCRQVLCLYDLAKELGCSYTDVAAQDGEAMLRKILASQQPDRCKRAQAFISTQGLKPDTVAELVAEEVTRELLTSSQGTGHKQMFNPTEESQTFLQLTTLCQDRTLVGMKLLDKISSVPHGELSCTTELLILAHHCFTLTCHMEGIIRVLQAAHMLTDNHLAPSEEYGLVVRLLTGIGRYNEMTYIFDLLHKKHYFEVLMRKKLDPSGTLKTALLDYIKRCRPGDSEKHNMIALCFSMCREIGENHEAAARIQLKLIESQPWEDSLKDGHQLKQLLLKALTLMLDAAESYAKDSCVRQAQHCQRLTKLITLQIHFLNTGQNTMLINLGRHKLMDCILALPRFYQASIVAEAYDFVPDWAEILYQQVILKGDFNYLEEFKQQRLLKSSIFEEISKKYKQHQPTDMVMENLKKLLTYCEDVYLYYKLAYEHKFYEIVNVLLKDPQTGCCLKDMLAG
UniProt P40763, whole entry, looked up: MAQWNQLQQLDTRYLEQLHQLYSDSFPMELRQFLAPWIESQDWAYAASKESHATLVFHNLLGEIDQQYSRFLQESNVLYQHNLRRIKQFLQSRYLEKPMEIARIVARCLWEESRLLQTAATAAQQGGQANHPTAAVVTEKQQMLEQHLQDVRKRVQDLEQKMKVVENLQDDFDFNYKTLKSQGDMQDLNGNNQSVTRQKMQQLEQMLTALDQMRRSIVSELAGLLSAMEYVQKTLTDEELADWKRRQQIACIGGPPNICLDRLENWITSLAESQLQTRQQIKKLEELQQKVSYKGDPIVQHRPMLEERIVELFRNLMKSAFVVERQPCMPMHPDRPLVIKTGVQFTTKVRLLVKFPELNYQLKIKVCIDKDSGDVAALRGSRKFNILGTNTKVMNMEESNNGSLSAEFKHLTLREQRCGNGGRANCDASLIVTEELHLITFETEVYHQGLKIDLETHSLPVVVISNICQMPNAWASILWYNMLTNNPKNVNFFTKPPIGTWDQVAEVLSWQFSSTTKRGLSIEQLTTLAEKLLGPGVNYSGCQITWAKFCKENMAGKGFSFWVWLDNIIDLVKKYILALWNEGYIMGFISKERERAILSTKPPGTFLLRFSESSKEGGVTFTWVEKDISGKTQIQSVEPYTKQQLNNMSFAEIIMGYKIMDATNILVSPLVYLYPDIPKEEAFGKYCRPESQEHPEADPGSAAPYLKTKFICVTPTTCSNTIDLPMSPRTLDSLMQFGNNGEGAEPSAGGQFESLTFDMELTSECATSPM

Columns and labels:
Experiment in all cases: log2 fold change, soluble protein after heating vs DMSO (PISA); higher = thermal stabilisation; K562 cells, 10 uM, 30 min; active = over 0.2 and 3.5 SD of the protein, either way, in both replicates (recomputed)
erlotinib = compound: C#Cc1cccc(Nc2ncnc3cc(OCCOC)c(OCCOC)cc23)c1 [erlotinib]
Outline: (§1)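 Soluble protein was defined as the supernatant after 21,000xg for 90 min. It came from K562 cells at 2×10^6 cells/mL given 10 μM compound for 30 min, heated in aliquots for 3 min across 48°C-58°C, pooled, and extracted in PBS with 0.5% NP-40 at 4°C, and was quantified by TMTpro 16plex LC-MS/MS with equalised channel sums. Thermal stability against control samples, from duplicates, is reported as log2 fold change.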

[1] = compound: C/C(=N\NC(=O)C1=CC(=CC=C1)S(=O)(=O)N2CCOCC2)/C3=C(C=CC(=C3)Cl)O
Outline: as §1

[2] = compound: C1=CC(=C(C=C1Cl)C2=NC3=NC=CN=C3C(=N2)NC4=CC=NC=C4)F
Outline: as §1

[3] = compound: C1=CC(=CC=C1C2=NC3=C(N2)C=C(C=C3)C(=O)N)OC4=CC=C(C=C4)Cl
Outline: as §1

[4] = compound: C1=CC2=C(C=CC(=C2)/C=C\3/C(=O)NC(=NCC4=CC=CS4)S3)N=C1
Outline: as §1

[5] = compound: C1=CC2=NC=CN=C2C=C1/C=C/3\C(=O)NC(=O)S3
Outline: as §1

[6] = compound: C1=CC=C(C=C1)C2=NC(=C(N2)C3=CC=NC=C3)C4=CC(=C(C=C4)Cl)O
Outline: as §1

[7] = compound: C1=CC=C2C(=C1)C3=NNC4=CC=CC(=C43)C2=O
Outline: as §1

[8] = compound: C1CCN(C1)C(=O)NC2=CC=CC(=C2)NC3=NC=C(C(=N3)NCCC4=CN=CN4)Br
Outline: as §1

[9] = compound: C1CN(CCC1(CC2=CC=C(C=C2)Cl)N)C3=NC=NC4=C3C=CN4
Outline: as §1

IRAK-1-4 Inhibitor I = compound: C1COCCN1CCN2C3=CC=CC=C3N=C2NC(=O)C4=CC(=CC=C4)[N+](=O)[O-] [IRAK-1-4 Inhibitor I]
Outline: as §1

ibrutinib = compound: C=CC(=O)N1CCC[C@@H](n2nc(-c3ccc(Oc4ccccc4)cc3)c3c(N)ncnc32)C1 [ibrutinib]
Outline: as §1

[10] = compound: CC(=O)c1cnc2ccc(-c3cc(Cl)c(O)c(Cl)c3)nc2c1N[C@H]1CC[C@H](CN(C)C)CC1
Outline: as §1

ralimetinib = compound: CC(C)(C)Cn1c(N)nc2ccc(-c3[nH]c(C(C)(C)C)nc3-c3ccc(F)cc3)nc21 [ralimetinib]
Outline: as §1

[11] = compound: CC(C)(O)CC(=O)NCCn1ccc2ncnc(Nc3ccc(Oc4cccc(C(F)(F)F)c4)c(Cl)c3)c21
Outline: as §1

[12] = compound: CC(C)C1=C2N=C(C=C(N2N=C1)NCC3=CC=CC=C3)NCCCCCCN
Outline: as §1

[13] = compound: CC(C)C[C@@H](C=O)NC(=O)[C@H](CC(C)C)NC(=O)[C@H](CC(C)C)NC(=O)OCc1ccccc1
Outline: as §1

pinometostat = compound: CC(C)N(C[C@H]1O[C@@H](n2cnc3c(N)ncnc32)[C@H](O)[C@@H]1O)[C@H]1C[C@@H](CCc2nc3cc(C(C)(C)C)ccc3[nH]2)C1 [pinometostat]
Outline: as §1

[14] = compound: CC1=C(C2=C(C=C1)C(=O)C3=CC=CC=C3N2CCCN)C
Outline: as §1

[15] = compound: CC1=C(C(CC(=O)N1)C2=CC=C(C=C2)C(F)(F)F)C(=O)NC3=C(C=C4C(=C3)C=NN4)F
Outline: as §1

Target: SREK1 isoform 2 (UniProt Q8WXA9)
- log2 fold change (erlotinib): inactive: -0.036
- log2 fold change [1]: inactive: 0.1
- log2 fold change [2]: inactive: -0.019
- log2 fold change [3]: inactive: 0.12
- log2 fold change [4]: inactive: -0.149
- log2 fold change [5]: inactive: -0.084
- log2 fold change [6]: inactive: 0.233
- log2 fold change [7]: inactive: -0.096
- log2 fold change [8]: inactive: -0.126
- log2 fold change [9]: inactive: -0.24
- log2 fold change (IRAK-1-4 Inhibitor I): inactive: -0.245
- log2 fold change (ibrutinib): inactive: -0.006
- log2 fold change [10]: active: -0.497
- log2 fold change (ralimetinib): inactive: 0.036
- log2 fold change [11]: inactive: 0.026
- log2 fold change [12]: inactive: -0.36
- log2 fold change [13]: inactive: 0.005
- log2 fold change (pinometostat): inactive: 0.11
- log2 fold change [14]: inactive: 0.08

Target: STAG2 (UniProt Q8N3U4)
- log2 fold change (erlotinib): inactive: -0.01
- log2 fold change [1]: inactive: 0.063
- log2 fold change [2]: inactive: -0.009
- log2 fold change [3]: inactive: 0.006
- log2 fold change [4]: inactive: 0.015
- log2 fold change [5]: inactive: 0.001
- log2 fold change [6]: inactive: -0.014
- log2 fold change [7]: inactive: -0.138
- log2 fold change [8]: inactive: -0.047
- log2 fold change [9]: inactive: 0.007
- log2 fold change (IRAK-1-4 Inhibitor I): inactive: -0.021
- log2 fold change (ibrutinib): inactive: -0.018
- log2 fold change [10]: inactive: -0.156
- log2 fold change (ralimetinib): inactive: -0.021
- log2 fold change [11]: inactive: -0.018
- log2 fold change [12]: inactive: 0.003
- log2 fold change [13]: inactive: -0.029
- log2 fold change (pinometostat): inactive: 0
- log2 fold change [15]: inactive: -0.022
- log2 fold change [14]: inactive: -0.1

Target: SPTLC1 (UniProt O15269)
- log2 fold change (erlotinib): inactive: 0.032
- log2 fold change [1]: inactive: 0.054
- log2 fold change [2]: inactive: 0.045
- log2 fold change [3]: inactive: -0.049
- log2 fold change [4]: inactive: 0.048
- log2 fold change [5]: inactive: 0.011
- log2 fold change [6]: inactive: 0.006
- log2 fold change [7]: inactive: 0.004
- log2 fold change [8]: inactive: -0.101
- log2 fold change [9]: inactive: 0.024
- log2 fold change (IRAK-1-4 Inhibitor I): inactive: -0.016
- log2 fold change (ibrutinib): inactive: -0.001
- log2 fold change [10]: inactive: -0.019
- log2 fold change (ralimetinib): inactive: -0.012
- log2 fold change [11]: inactive: -0.066
- log2 fold change [12]: inactive: -0.19
- log2 fold change [13]: inactive: 0.024
- log2 fold change (pinometostat): inactive: 0.059
- log2 fold change [15]: inactive: 0.072
- log2 fold change [14]: inactive: 0.043

Target: SPTBN4 (UniProt Q9H254)
- log2 fold change (erlotinib): inactive: 0.29
- log2 fold change [1]: inactive: 0
- log2 fold change [2]: inactive: -0.045
- log2 fold change [3]: inactive: 0.078
- log2 fold change [4]: inactive: 0.066
- log2 fold change [5]: inactive: -0.027
- log2 fold change [6]: inactive: 0.035
- log2 fold change [7]: inactive: 0.061
- log2 fold change [8]: inactive: 0.066
- log2 fold change [9]: inactive: -0.05
- log2 fold change (IRAK-1-4 Inhibitor I): inactive: -0.008
- log2 fold change (ibrutinib): inactive: 0.1
- log2 fold change [10]: inactive: -0.06
- log2 fold change (ralimetinib): inactive: -0.032
- log2 fold change [11]: inactive: -0.025
- log2 fold change [12]: active: -0.671
- log2 fold change [13]: inactive: -0.07
- log2 fold change (pinometostat): inactive: -0.007
- log2 fold change [14]: inactive: -0.016

Target: STARD3NL (UniProt O95772)
- log2 fold change (erlotinib): inactive: 0.004
- log2 fold change [1]: inactive: -0.107
- log2 fold change [2]: inactive: -0.004
- log2 fold change [3]: inactive: -0.003
- log2 fold change [4]: inactive: 0.169
- log2 fold change [5]: inactive: 0.048
- log2 fold change [6]: inactive: 0.11
- log2 fold change [7]: inactive: 0.103
- log2 fold change [8]: inactive: -0.013
- log2 fold change [9]: inactive: 0.015
- log2 fold change (IRAK-1-4 Inhibitor I): inactive: 0.014
- log2 fold change (ibrutinib): inactive: -0.023
- log2 fold change [10]: inactive: -0.216
- log2 fold change (ralimetinib): inactive: 0.038
- log2 fold change [11]: inactive: -0.014
- log2 fold change [12]: active: -0.432
- log2 fold change [13]: inactive: -0.036
- log2 fold change (pinometostat): inactive: 0.013
- log2 fold change [14]: inactive: 0.062

Target: SPG11 (UniProt Q96JI7)
- log2 fold change (erlotinib): inactive: 0.586
- log2 fold change [1]: inactive: 0.148
- log2 fold change [2]: inactive: -0.089
- log2 fold change [3]: inactive: -0.084
- log2 fold change [4]: inactive: 0.128
- log2 fold change [5]: inactive: -0.108
- log2 fold change [6]: inactive: -0.275
- log2 fold change [7]: inactive: -0.073
- log2 fold change [8]: inactive: 0.405
- log2 fold change [9]: inactive: -0.002
- log2 fold change (IRAK-1-4 Inhibitor I): inactive: -0.027
- log2 fold change (ibrutinib): inactive: 0.128
- log2 fold change [10]: inactive: -0.065
- log2 fold change (ralimetinib): inactive: -0.151
- log2 fold change [11]: inactive: 0.103
- log2 fold change [12]: inactive: 0.051
- log2 fold change [13]: inactive: 0.405
- log2 fold change (pinometostat): inactive: 0.035
- log2 fold change [14]: inactive: 0.097

Target: STAT3 (UniProt P40763)
- log2 fold change (erlotinib): inactive: -0.023
- log2 fold change [1]: inactive: 0.147
- log2 fold change [2]: inactive: 0.026
- log2 fold change [3]: inactive: 0.007
- log2 fold change [4]: inactive: 0.031
- log2 fold change [5]: inactive: 0.031
- log2 fold change [6]: inactive: 0.011
- log2 fold change [7]: inactive: -0.001
- log2 fold change [8]: inactive: -0.01
- log2 fold change [9]: inactive: -0.036
- log2 fold change (IRAK-1-4 Inhibitor I): inactive: -0.038
- log2 fold change (ibrutinib): inactive: -0.044
- log2 fold change [10]: inactive: 0.009
- log2 fold change (ralimetinib): inactive: -0.001
- log2 fold change [11]: inactive: -0.08
- log2 fold change [12]: active: -0.261
- log2 fold change [13]: inactive: 0.024
- log2 fold change (pinometostat): inactive: 0
- log2 fold change [14]: inactive: -0.057

Target: STARD9 (UniProt Q9P2P6)
- log2 fold change (erlotinib): inactive: 0.026
- log2 fold change [1]: inactive: 0.117
- log2 fold change [2]: inactive: -0.089
- log2 fold change [3]: inactive: 0.119
- log2 fold change [4]: inactive: 0.06
- log2 fold change [5]: inactive: 0
- log2 fold change [6]: inactive: -0.131
- log2 fold change [7]: inactive: 0.005
- log2 fold change [8]: inactive: -0.003
- log2 fold change [9]: inactive: -0.099
- log2 fold change (IRAK-1-4 Inhibitor I): inactive: -0.121
- log2 fold change (ibrutinib): inactive: 0.161
- log2 fold change [10]: inactive: 0.091
- log2 fold change (ralimetinib): inactive: 0.068
- log2 fold change [11]: inactive: -0.156
- log2 fold change [12]: inactive: -0.066
- log2 fold change [13]: inactive: 0.085
- log2 fold change (pinometostat): inactive: 0.083
- log2 fold change [14]: inactive: -0.07

Target: SRPRA (UniProt P08240)
- log2 fold change (erlotinib): inactive: -0.01
- log2 fold change [1]: inactive: 0.061
- log2 fold change [2]: inactive: 0.073
- log2 fold change [3]: inactive: 0.007
- log2 fold change [4]: inactive: 0.054
- log2 fold change [5]: inactive: -0.048
- log2 fold change [6]: inactive: 0.063
- log2 fold change [7]: inactive: 0.003
- log2 fold change [8]: inactive: 0.001
- log2 fold change [9]: inactive: 0.006
- log2 fold change (IRAK-1-4 Inhibitor I): inactive: -0.024
- log2 fold change (ibrutinib): inactive: 0.015
- log2 fold change [10]: inactive: -0.028
- log2 fold change (ralimetinib): inactive: -0.002
- log2 fold change [11]: inactive: -0.058
- log2 fold change [12]: inactive: 0.021
- log2 fold change [13]: inactive: -0.006
- log2 fold change (pinometostat): inactive: -0.001
- log2 fold change [14]: active: 0.269
